Consider 42 sequences from article PMC7819943, “Rice protein-binding microarrays: a tool to detect cis-acting elements near promoter regions in rice”.

The other results are listed elsewhere or left out.

The target in this assay is T1, OsSMF1 (Oryza sativa, UniProt Q6ZLB0 1-436).
T1 sequence: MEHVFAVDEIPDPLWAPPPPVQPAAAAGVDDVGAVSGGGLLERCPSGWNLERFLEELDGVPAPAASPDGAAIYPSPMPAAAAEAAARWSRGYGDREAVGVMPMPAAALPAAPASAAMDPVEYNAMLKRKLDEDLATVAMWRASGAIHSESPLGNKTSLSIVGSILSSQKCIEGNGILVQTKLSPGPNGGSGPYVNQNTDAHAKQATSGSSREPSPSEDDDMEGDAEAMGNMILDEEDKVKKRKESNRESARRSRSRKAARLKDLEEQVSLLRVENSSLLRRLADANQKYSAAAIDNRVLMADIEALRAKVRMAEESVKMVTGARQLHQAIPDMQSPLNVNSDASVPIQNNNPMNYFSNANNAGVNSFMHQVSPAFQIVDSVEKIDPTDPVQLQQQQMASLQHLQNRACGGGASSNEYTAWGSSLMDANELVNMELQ
Kind of assay: protein-binding microarray (RPBM); PBS, 2% BSA, 51.3 ng/ul salmon testes DNA, 50 uM zinc acetate, 200 nM TF, 25 C, 1 h; high values mean tight binding. Conditions: protein: recombinant; tags: N-terminal polyhistidine and DsRed monomer fusion (pET32a); chain copies: 2; label: CyDye5-dUTP incorporated in the synthesized complementary strand; 3' TTTTT single-stranded linker to array surface; dsDNA, one strand shown. The essentials:
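For the binding signal, per-feature fluorescence intensity was read in arbitrary units on an Axon 4000B scanner. Before scanning, a 2% BSA-blocked custom Agilent array made double-stranded with Cy5-dUTP was washed after 1 h at 25 °C with 200 nM protein and 50 µM zinc acetate. The proteins were Ni–NTA-purified transcription factors with N-terminal polyhistidine and DsRed fusions, expressed in E. coli BL21-CodonPlus.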
Consider “CATGGACAATAACACGTGCGTCCCAGGTCATGCTTTACGCCGGAGTCACCTAGTGCAG”, for which the binding signal was 4420 fluorescence intensity (a.u.). Consider “AAGTTAAATATCCCTCGTTCGTGTCAGAGACAAGCCAGCACGGAGTCACCTAGTGCAG”, for which the binding signal is 3280 fluorescence intensity (a.u.).

As for “CTCTCGGTGTTGCTCACCCCGACCGGCGGGCCGCCGCTCCCGGAGTCACCTAGTGCAG”, the binding signal was 3420 fluorescence intensity (a.u.). The result for “TCCAACGCCGCTGTCATTTCCAATCTCCCACCCATTTACTCGGAGTCACCTAGTGCAG” reads 16000 fluorescence intensity (a.u.); that for “GTTGAATGTCTAGTTGACGCAGAAGAATCCTTGTATTCCACGGAGTCACCTAGTGCAG”, 3240 fluorescence intensity (a.u.). For the sequence “CTCCCTCACGGTCACGCCGGCTCTCTCCCCTCCTCTCTCCCGGAGTCACCTAGTGCAG”, the binding signal was 3170 fluorescence intensity (a.u.). The result for “GGTTTCACATTAATCTGATCCTCAACTGTAATATACCAATCGGAGTCACCTAGTGCAG” reads 3220 fluorescence intensity (a.u.); that for “ATGTATTTTATGACAACAGAGTAAACAATGTGATATACATCGGAGTCACCTAGTGCAG”, 3220 fluorescence intensity (a.u.); that for “CATTTGTTTTATTTTAGCATTTGTCACTTACATGTGGGACCGGAGTCACCTAGTGCAG”, 3180 fluorescence intensity (a.u.).

“TGGTTGCAAGTTTCTAGCTATATATGAGTTGTATAATCGGCGGAGTCACCTAGTGCAG”: the binding signal was 3290 fluorescence intensity (a.u.).

Regarding “TGTTTAACAGGGTTCATGGCCCCTAATCCATTACTGCCCCCGGAGTCACCTAGTGCAG”, the binding signal was 4100 fluorescence intensity (a.u.). Regarding “CACCGATGCACCCATCCATCCCATCATATGATCCTATCCGCGGAGTCACCTAGTGCAG”, the binding signal was 19000 fluorescence intensity (a.u.). “CACTTGGTCGGTGCACAAGGACGTCACCAAGTACGCGTCACGGAGTCACCTAGTGCAG”: the binding signal was 8230 fluorescence intensity (a.u.). “TTTATTTATATTAGACTTTTCGGCTCAGACTCATAAGCATCGGAGTCACCTAGTGCAG”: the binding signal was 19800 fluorescence intensity (a.u.). For the sequence “GGGACTAGTGTGTCATGGGTGTAGCTGTACATCTACTTTCCGGAGTCACCTAGTGCAG”, the binding signal was 5760 fluorescence intensity (a.u.).

For “TCGGAATGACTCAACCAACTCAGTTTGGTATAACCGACTTCGGAGTCACCTAGTGCAG”, the binding signal was 4880 fluorescence intensity (a.u.). Take “ACCAAGATCCTGTGGATGAGGAGGATGCGTGTGCTCAGGCCGGAGTCACCTAGTGCAG”: the binding signal was 3960 fluorescence intensity (a.u.). Regarding “ACAAAGGATGTAGAAATATGGAGCTGAGTAATCTAGCCAACGGAGTCACCTAGTGCAG”, the binding signal is 3780 fluorescence intensity (a.u.). The result for “CCGTGCAGCTCTCACTTGATCATCTTATCGCTACTCAGCCCGGAGTCACCTAGTGCAG” reads 3730 fluorescence intensity (a.u.); that for “CCAATTCGCCATCCGTCTGTCGACCGCATCTTAATATCCGCGGAGTCACCTAGTGCAG”, 4340 fluorescence intensity (a.u.). The result for “CCTCCGGCCAAGTGACACCGCAGCTCACCTCACCTCACCTCGGAGTCACCTAGTGCAG” reads 3950 fluorescence intensity (a.u.); that for “TGGTGTACTGTAAAGAATTCTCCTTGATTTAATGTTGTCACGGAGTCACCTAGTGCAG”, 3500 fluorescence intensity (a.u.); that for “TTATCGTGATATTAACACAGCCTTTCTTCCATGTTGCTTGCGGAGTCACCTAGTGCAG”, 30200 fluorescence intensity (a.u.). Consider “GAGGGGTTACGCGTTAGGCGCTGCCACGTGTATCGATCGGCGGAGTCACCTAGTGCAG”, for which the binding signal was 21900 fluorescence intensity (a.u.). “CGAGCCCACTCGAGGTGACTCACCTTGTTCCTCCACCAGTCGGAGTCACCTAGTGCAG”: the binding signal was 18500 fluorescence intensity (a.u.). The result for “GCCTTCTCCACGCACTCTGCTGAGTGCTCGATCGCTCACTCGGAGTCACCTAGTGCAG” reads 3210 fluorescence intensity (a.u.); that for “GGTTTGGCCATGCATGCATGCATGCGTGCTTCCCACGTGACGGAGTCACCTAGTGCAG”, 3680 fluorescence intensity (a.u.); that for “CGAATTTGCGTCACTCAAATGGCATTTGTCACTTAAAGCGCGGAGTCACCTAGTGCAG”, 6890 fluorescence intensity (a.u.).

Turning to “GGACGGCGCCGACGTGGGTTGGGGAAGGCTGCTCGGCTCACGGAGTCACCTAGTGCAG”, the binding signal is 4580 fluorescence intensity (a.u.). Take “GGCCTCGCTCCCCGTGGCCGTGGCCCGCTCCTATAAATAGCGGAGTCACCTAGTGCAG”: the binding signal is 29900 fluorescence intensity (a.u.).

For the sequence “AATGTACGGGCACACGAGTGCACGACATCATGTTATGCGGCGGAGTCACCTAGTGCAG”, the binding signal is 3380 fluorescence intensity (a.u.).

As for “CGTCTCGCCGCCCGTCTCCGGCGGCCGCACGTTGGCATTTCGGAGTCACCTAGTGCAG”, the binding signal is 4100 fluorescence intensity (a.u.). The result for “ATTAATAACCTGAGGTCATCAGTGATATCTACGTGGGCTGCGGAGTCACCTAGTGCAG” reads 4760 fluorescence intensity (a.u.); that for “AACCCGTTGTAAGTTTGGTTAAATTTTATCATTCATCCTTCGGAGTCACCTAGTGCAG”, 3530 fluorescence intensity (a.u.); that for “TTATACAAACAGTCCTGAATGCCAAGTCTGGTTAACACATCGGAGTCACCTAGTGCAG”, 31600 fluorescence intensity (a.u.). Take “GCGCTGTTTATGACTCCGCCAGTGTCTTGAGCTAAGAGCCCGGAGTCACCTAGTGCAG”: the binding signal was 5270 fluorescence intensity (a.u.). Turning to “CCAGTTCCGTTTCCCACACTAGACTTAGAGAGAGAGGTAGCGGAGTCACCTAGTGCAG”, the binding signal is 11400 fluorescence intensity (a.u.).

As for “TAGCCACGTAATTTTGACAGGCTGCTCTTGCAGTTAGTGGCGGAGTCACCTAGTGCAG”, the binding signal is 8040 fluorescence intensity (a.u.). Take “TTCGCTAACTGGGTATAGGTGGGCCAAGTTTACTCTTGGGCGGAGTCACCTAGTGCAG”: the binding signal was 3380 fluorescence intensity (a.u.).

“ACTTTGAAAGCACTGTTTCAGATGTGAATCACCCTTTGCTCGGAGTCACCTAGTGCAG”: the binding signal was 3250 fluorescence intensity (a.u.). The result for “AACCAATGAATGTTTGTGTCACGCACGCATCCACCGATCCCGGAGTCACCTAGTGCAG” reads 3550 fluorescence intensity (a.u.); that for “TTTCATCTTCACGTAGATTGCGTTGTCATGCAGGTCATTTCGGAGTCACCTAGTGCAG”, 4600 fluorescence intensity (a.u.).
